Source: PubChem BioAssay AID256 (DTP/NCI, 2004)
The list does not hold the whole screen: it gathers tests that were run many times, whatever their T/C, doses with no T/C, and many T/C values between a quarter and a half above the control. Further doses and runs are listed elsewhere. T/C: endpoint of the treated group in % of that of the vehicle group. Some entries give survivors of the animals treated and no T/C: the source files T/C as zero there, which appears to mark a toxic dose or a test without result, not a measured value. Some survivor counts are full or nearly so, which does not show that the dose was tolerated: the source hardly ever lists a survival T/C far under the control, and the zero likely stands for such cases as well. Counts of survivors are from the toxicity check (mostly the fifth day) where no day follows; animals may have died later. Schedules are NCI's codes, read here as Q, the interval in days (D) or hours (H), X, the number of doses. Some entries hold several experiments; their values stand side by side, smallest first. For survival time, the PubChem record calls one and a half times the control and up active, and a quarter to a half above the control has no call in these data; cut-offs in other NCI protocols can differ. Brackets with × stand for listed records that agree. Some T/C values are followed by the survivors on the day toxicity was checked, most often the fifth; where none is given, no animal had died by that day.

Tested on: CD2F1 mice, L1210 leukemia ip, survival T/C
Assay: NCI In Vivo Anticancer Drug Screen. Data for tumor model L1210 Leukemia (intraperitoneal) in CD2F1 (CDF1) mice
Conditions: higher T/C = longer survival
Method in brief: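 Ratio T/C, where T is the treated-group value and C the vehicle-dosed control value, from mice implanted with a transplantable tumor.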

[1] = T/C endpoint: median survival time, dose: 125.0 mg/kg/injection, schedule: Q01DX001 (ip), vehicle: water
[2] = T/C endpoint: mean survival time, dose: 400.0 mg/kg/injection, schedule: Q01DX009 (ip), vehicle: saline with Tween-80
[3] = T/C endpoint: mean survival time, dose: 200.0 mg/kg/injection, schedule: Q04DX003 (ip), vehicle: saline with Tween-80
[4] = T/C endpoint: mean survival time, dose: 150.0 mg/kg/injection, schedule: Q01DX001 (ip), vehicle: saline
[5] = T/C endpoint: mean survival time, dose: 300.0 mg/kg/injection, schedule: Q01DX001 (ip), vehicle: saline
[6] = T/C endpoint: mean survival time, dose: 100.0 mg/kg/injection, schedule: Q04DX003 (ip), vehicle: saline
[7] = T/C endpoint: mean survival time, dose: 200.0 mg/kg/injection, schedule: Q04DX003 (ip), vehicle: saline
[8] = T/C endpoint: mean survival time, dose: 400.0 mg/kg/injection, schedule: Q04DX003 (ip), vehicle: saline
[9] = T/C endpoint: mean survival time, dose: 200.0 mg/kg/injection, schedule: Q04DX002 (ip), vehicle: saline with Tween-80

NCCCN=c1ccc2c3c1c(O)c1c(O)ccc(=O)c1c3[nH]n2CCNCCO
T/C (T/C endpoint: median survival time, dose: 1.8 mg/kg/injection, schedule: Q01DX005 (iv), vehicle: saline): 131 % of control | T/C (T/C endpoint: median survival time, dose: 2.0 mg/kg/injection, schedule: Q01DX009 (ip), vehicle: water): 143 % of control [5 of 6 alive] | T/C (T/C endpoint: median survival time, dose: 2.2 mg/kg/injection, schedule: Q01DX001 (ip), vehicle: water): 125 and 137 % of control | T/C (T/C endpoint: median survival time, dose: 4.5 mg/kg/injection, schedule: Q01DX001 (ip), vehicle: water): 136 % of control | T/C (T/C endpoint: median survival time, dose: 9.0 mg/kg/injection, schedule: Q01DX001 (iv), vehicle: saline): 146 % of control | T/C (T/C endpoint: median survival time, dose: 9.0 mg/kg/injection, schedule: Q01DX001 (iv), vehicle: water): 125 and 131 % of control | survivor count (T/C endpoint: median survival time, dose: 14.4 mg/kg/injection, schedule: Q01DX005 (iv), vehicle: saline): 6 of 10 | T/C (T/C endpoint: median survival time, dose: 18.0 mg/kg/injection, schedule: Q01DX001 (iv), vehicle: water): 142 and 147 % of control | survivor count (T/C endpoint: median survival time, dose: 24.0 mg/kg/injection, schedule: Q03HX024 (ip), vehicle: saline): 6 of 10 | T/C (T/C endpoint: median survival time, dose: 25.0 mg/kg/injection, schedule: Q01DX001 (ip), vehicle: water, evaluated on day 45): 524 % of control (2×) | T/C (T/C endpoint: median survival time, dose: 25.0 mg/kg/injection, schedule: Q01DX001 (ip), vehicle: water, evaluated on day 60): 345 % of control (2×) | T/C (T/C endpoint: median survival time, dose: 36.0 mg/kg/injection, schedule: Q01DX001 (iv), vehicle: water): 148 % of control | survivor count (T/C endpoint: median survival time, dose: 36.0 mg/kg/injection, schedule: Q03HX008 (ip), vehicle: saline): 5 of 10 | T/C (T/C endpoint: median survival time, dose: 37.0 mg/kg/injection, schedule: Q01DX001 (ip), vehicle: water, evaluated on day 45): 219 % of control (2×) | T/C (T/C endpoint: median survival time, dose: 37.0 mg/kg/injection, schedule: Q01DX001 (ip), vehicle: water, evaluated on day 60): 740 % of control (2×) | T/C (T/C endpoint: median survival time, dose: 56.0 mg/kg/injection, schedule: Q01DX001 (ip), vehicle: water, evaluated on day 45): 548 % of control (2×) | T/C (T/C endpoint: median survival time, dose: 56.0 mg/kg/injection, schedule: Q01DX001 (ip), vehicle: water, evaluated on day 60): 740 % of control (2×) | T/C (T/C endpoint: median survival time, dose: 57.6 mg/kg/injection, schedule: Q01DX005 (ip), vehicle: saline): 126 % of control | survivor count (T/C endpoint: median survival time, dose: 72.0 mg/kg/injection, schedule: Q01DX001 (iv), vehicle: saline): 3 of 10 | survivor count (T/C endpoint: median survival time, dose: 72.0 mg/kg/injection, schedule: Q01DX001 (iv), vehicle: water): 0 of 10 | T/C (T/C endpoint: median survival time, dose: 85.0 mg/kg/injection, schedule: Q01DX001 (ip), vehicle: water, evaluated on day 45): 548 % of control (2×) | T/C (T/C endpoint: median survival time, dose: 85.0 mg/kg/injection, schedule: Q01DX001 (ip), vehicle: water, evaluated on day 60): 740 % of control [8 of 10 alive] (2×) | T/C [1]: 740 % of control [8 of 10 alive] (2×) | survivor count [1]: 2 of 10 | survivor count (T/C endpoint: median survival time, dose: 144.0 mg/kg/injection, schedule: Q01DX001 (ip), vehicle: water): 2 of 10 | survivor count (T/C endpoint: median survival time, dose: 256.0 mg/kg/injection, schedule: Q01DX009 (oral), vehicle: saline): 6 of 10

COc1ccc(NC(=S)/C(=C(\[O-])c2ccc([N+](=O)[O-])cc2)[n+]2ccc(C(C)C)cc2)cc1
survivor count [2]: 6 of 6

COc1cccc(/C=N/NC(=O)c2ccccc2N2CCCC2)c1O
survivor count (T/C endpoint: mean survival time, dose: 400.0 mg/kg/injection, schedule: Q01DX009 (ip), vehicle: olive oil, sesame oil, peanut oil): 6 of 6

O=S1Cc2ccccc2C1
survivor count [3]: 5 of 6 | survivor count (T/C endpoint: mean survival time, dose: 400.0 mg/kg/injection, schedule: Q04DX003 (ip), vehicle: saline with Tween-80): 0 of 6

COc1cc(NCCCCNC(C)C)c2ncccc2c1
survivor count [4]: 0 of 6 | survivor count [5]: 0 of 6

CCOC(=O)C(=O)C1CCc2c(ccc3ccccc23)C1=O (configuration not stated)
survivor count (T/C endpoint: mean survival time, dose: 400.0 mg/kg/injection, schedule: Q01DX001 (ip), vehicle: Klucel (hydroxypropylcellulose) (HPC)): 6 of 6

CCOC(=O)N1C2c3ccccc3C(c3ccccc32)N1C(=O)OCC
survivor count [2]: 5 of 6

O=C1C=CC(n2cc(F)c(=O)[nH]c2=O)O1 (configuration not stated)
T/C (T/C endpoint: median survival time, dose: 12.5 mg/kg/injection, schedule: Q01DX009 (ip), vehicle: saline with Tween-80): 139 % of control | T/C (T/C endpoint: median survival time, dose: 12.5 mg/kg/injection, schedule: Q01DX009 (ip), vehicle: saline): 125 % of control | T/C (T/C endpoint: median survival time, dose: 25.0 mg/kg/injection, schedule: Q01DX009 (ip), vehicle: saline with Tween-80): 145 % of control | T/C (T/C endpoint: median survival time, dose: 25.0 mg/kg/injection, schedule: Q01DX009 (ip), vehicle: saline): 141 % of control | T/C (T/C endpoint: median survival time, dose: 50.0 mg/kg/injection, schedule: Q01DX009 (ip), vehicle: saline with Tween-80): 142 % of control

CCOc1ccc(C(=O)OC(CN(CC)CC)c2ccccc2)cc1 (configuration not stated)
survivor count [6]: 1 of 3 | survivor count [7]: 0 of 3 | survivor count [8]: 0 of 3

COc1ccc(C(O)C#N)cc1O (configuration not stated)
survivor count (T/C endpoint: mean survival time, dose: 25.0 mg/kg/injection, schedule: Q04DX003 (ip), vehicle: saline): 1 of 6 | survivor count [6]: 0 of 6 | survivor count [7]: 0 of 6 | survivor count [8]: 0 of 6

CCC1=NNC(=O)C1(Br)Br
survivor count (T/C endpoint: mean survival time, dose: 50.0 mg/kg/injection, schedule: Q04DX003 (ip), vehicle: saline with Tween-80): 1 of 6 | survivor count (T/C endpoint: mean survival time, dose: 100.0 mg/kg/injection, schedule: Q04DX003 (ip), vehicle: saline with Tween-80): 1 of 6 | survivor count [3]: 0 of 6

OCc1cn2c(c1CO)CCC2
T/C (T/C endpoint: mean survival time, dose: 50.0 mg/kg/injection, schedule: Q01DX009 (ip), vehicle: water): 125 % of control | survivor count (T/C endpoint: mean survival time, dose: 100.0 mg/kg/injection, schedule: Q01DX009 (ip), vehicle: water): 2 of 6 | survivor count (T/C endpoint: mean survival time, dose: 200.0 mg/kg/injection, schedule: Q01DX009 (ip), vehicle: water): 1 of 6

C=C(Br)CNC(=O)CCC
survivor count [6]: 0 of 6 | survivor count [7]: 0 of 6 | survivor count [8]: 0 of 6

CN(C)/C=C/C#N
survivor count [4]: 0 of 6 | survivor count [5]: 0 of 6

COc1cc(NCc2ccc3nc(N)nc(N)c3c2C)cc(OC)c1OC (tested in a mixture with another compound)
T/C (T/C endpoint: median survival time, dose: 20.0 mg/kg/injection, schedule: Q01DX005 (ip), vehicle: water): 130 % of control [5 of 6 alive] | T/C (T/C endpoint: median survival time, dose: 40.0 mg/kg/injection, schedule: Q01DX005 (ip), vehicle: water): 137 % of control | T/C (T/C endpoint: median survival time, dose: 80.0 mg/kg/injection, schedule: Q01DX005 (ip), vehicle: water): 130 % of control | survivor count (T/C endpoint: median survival time, dose: 160.0 mg/kg/injection, schedule: Q01DX005 (ip), vehicle: water): 4 of 6

CN1CCC(CN2c3ccccc3Sc3ccccc32)C1 (configuration not stated)
T/C (T/C endpoint: mean survival time, dose: 50.0 mg/kg/injection, schedule: Q01DX009 (ip), vehicle: saline with Tween-80): 133 % of control | survivor count (T/C endpoint: mean survival time, dose: 100.0 mg/kg/injection, schedule: Q01DX009 (ip), vehicle: saline with Tween-80): 0 of 3 and 1 of 6 | survivor count (T/C endpoint: mean survival time, dose: 200.0 mg/kg/injection, schedule: Q01DX009 (ip), vehicle: saline with Tween-80): 0 of 3

O=C1C2C3CCC(O3)C2C(=O)N1CO (configuration not stated)
survivor count [9]: 2 of 3 | survivor count (T/C endpoint: mean survival time, dose: 400.0 mg/kg/injection, schedule: Q04DX002 (ip), vehicle: saline with Tween-80): 0 of 3

Cc1cccc(Cl)c1NC(=O)C(C)N1CCCC1 (configuration not stated)
survivor count (T/C endpoint: mean survival time, dose: 100.0 mg/kg/injection, schedule: Q04DX003 (ip), vehicle: saline sonified): 5 of 6 | survivor count (T/C endpoint: mean survival time, dose: 200.0 mg/kg/injection, schedule: Q04DX003 (ip), vehicle: saline sonified): 2 of 6 | survivor count (T/C endpoint: mean survival time, dose: 400.0 mg/kg/injection, schedule: Q04DX003 (ip), vehicle: saline sonified): 0 of 6

CCCCCCCCCCCCCCCCCC[N+](CC)(CC)CC
survivor count (T/C endpoint: mean survival time, dose: 6.0 mg/kg/injection, schedule: Q01DX001 (ip), vehicle: Klucel (hydroxypropylcellulose) (HPC)): 6 of 6

COc1ccc2c(c1)CCC1C2CCC2(C)C(=O)NC(=O)N12 (configuration not stated)
survivor count (T/C endpoint: mean survival time, dose: 200.0 mg/kg/injection, schedule: Q01DX001 (ip), vehicle: saline with Tween-80): 6 of 6 | survivor count [9]: 3 of 3
